From patent publication US10987369B2, “Pdia4 protein as a target for diagnosis, monitoring and treatment of diabetes” (ACADEMIA SINICA, priority 2014, dated 2021)
At least one compound was matched to its structure with a doubt left.

System: pdia4^−/−lepr^db/db mice
Experiment: Postprandial blood glucose in treated pdia4-/- lepr db/db mice
Details: metformin 60 mg/kg BW, rosiglitazone 20 mg/kg BW or both, daily, FIG. 5A

`CN(CCOc1ccc(CC2SC(=O)NC2=O)cc1)c1ccccn1` (stereo not shown) [rosiglitazone] was tested, and the “hyperglycemia (postprandial blood glucose)” value was “normalize hyperglycemia”.
